Source: patent publication US20040248909A1, “Adenosine a1 receptor antagonist for treating hypoxia-induced learning memory impairment” (priority 2001, published 2004)
“Also recorded” adds a separate entry of the source. For at least one compound, name, drawing or mass did not settle the structure.

System: CA1 pyramidal cells
Experiment: Sch-CA1 synaptic transmission (EPSPs) in hippocampal slices during brief hypoxia (synaptic arrest)
Format: cell-based, rat
Details: end of 3 min hypoxia; citicoline 100 μM, 8-cyclopentyl-1,3-dipropylxanthine 10 μM
Method: Brain slices and electrophysiology. Male Sprague-Dawley rats (150-200 gm) were anesthetized with pentobarbital and the brains were removed and cooled rapidly in aCSF solution, bubbled continuously with 95% O2 and 5% CO2. Hippocampi were sliced ([…]) and placed in oxygenated aCSF (NaCl, 124 mM; KCl 3; MgSO4 1.3; CaCl2 2.4; NaHCO3 26; NaH2PO4 1.25; and glucose 10). The CA1 pyramidal cells were recorded at 30-31° C. with sharp electrodes (tip resistance: 60-120 MΩ). Study was performed on CA1 neurons with stable resting membrane potential more negative than −70 mV. Unless otherwise mentioned, test stimuli were applied at frequency of 1 per minute (0.017 Hz). Signals were amplified with AxoClamo-2B amplifier, digitized and stored using DigiData 1200 with the P-Clamp data collection and analysis software (Axon Instruments, Inc.).
Hypoxia. Episodes of hypoxia were induced by replacing the oxygen supply with 95% N2/5% O2/5% CO2 for 3 min or 95% N2/5% CO2 for 100 s. […]
The period of hypoxia is known to block synaptic transmission of glutarmatergic inputs^8, GABAergic input^8,10 and cholinergic inputs ^11,12, causing disconnection, or synaptic ‘arrest’, of CA1 neuronal network^8. […] Effects of brief hypoxia on synaptic transmission and of agents on hypoxic responses were monitored on responses of CA1 pyramidal cells to Sch activation. […]

How did the “effect on hypoxic synaptic arrest” value turn out when `C[N+](C)(C)CCOP(=O)(O)OP(=O)([O-])OC[C@H]1O[C@@H](n2ccc(N)nc2=O)[C@H](O)[C@@H]1O` [citicoline] was run?
Its value is “synaptic arrest was observed; also recorded: ineffective”.
